Data on 6 molecules can be found in patent CN111018985A.

By UniProt entry, the sequences of proteins in these tests, tags left out. Residues count along the entry.
UniProt P02769, residues 25-607: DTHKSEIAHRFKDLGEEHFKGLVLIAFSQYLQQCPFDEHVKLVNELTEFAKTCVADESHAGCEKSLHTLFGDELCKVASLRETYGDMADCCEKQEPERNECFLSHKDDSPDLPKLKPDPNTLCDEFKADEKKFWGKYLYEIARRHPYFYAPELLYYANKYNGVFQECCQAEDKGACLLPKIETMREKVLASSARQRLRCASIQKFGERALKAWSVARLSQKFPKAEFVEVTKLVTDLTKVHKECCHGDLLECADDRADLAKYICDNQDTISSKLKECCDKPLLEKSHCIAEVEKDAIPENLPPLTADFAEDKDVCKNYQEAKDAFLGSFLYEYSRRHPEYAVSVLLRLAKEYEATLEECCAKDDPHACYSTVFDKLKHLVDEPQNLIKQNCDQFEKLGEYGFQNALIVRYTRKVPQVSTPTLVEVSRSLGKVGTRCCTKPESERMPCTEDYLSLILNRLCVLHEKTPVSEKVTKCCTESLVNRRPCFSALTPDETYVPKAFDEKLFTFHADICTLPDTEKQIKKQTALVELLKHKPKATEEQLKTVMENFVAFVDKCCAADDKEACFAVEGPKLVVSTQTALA

B1: 2D6 针对BSA的重组单域抗体 (人源Fc融合) (Fc fusion, 人源 (human), not shown: a dimerising Fc or GST; small tags and cut ends)
chain: QVQLQESGGGSVQTGGSLRLSCAASGNSDGAWSMGWFRQAPGKEREGVAALYVFTGITYYAGSVKGRFTISQDKAKNTVYLQMNSLKPEDTAMYYCAAGTAFPTLNRNKYNYWGQGTQVTVSS
B2: 1C6 (VHH, not shown: small tags and cut ends)
VHH: QVQLQESGGGSVQAGGSLRLSCVVSGYAYSTNYMGWFRQAPGKEREGVAVIYTTVGTTYYADSVKGRFTISQDNAKNTVSLQMNSLQPEDTAMYYCAAVRRPWRLDSLDPSSFRYWGQGTQVTVSS
B3: 1D6 (VHH, not shown: small tags and cut ends)
VHH: B2 VHH with S85G
B4: 1B4 (VHH, not shown: small tags and cut ends)
VHH: QVQLQESGGGSVQAGGSLRLSCVASRYMGSTYYMAWFRQAPGKEREGVAAIYIASGNSGSTYYADSVKGRFTISRDNAKNTVYLQMNSLIPEDTASYYCASDLSRRNWLPPLVPGKYSLWGQGTQVTVSS
B5: 1D10 (VHH, not shown: small tags and cut ends)
VHH: QVQLQESGGGSVQAGGSLRLSCAASGYTGSVNYMAWFRQAPGKEREGVAAIYGYGGSTYYADSVKGRFTISRDNAKNTVYLQMNSLIPEDTASYYCASDQSRRSWLSPLVPGKYSLWGQGTQVTVSS
B6: 2D8 (VHH, not shown: small tags and cut ends)
VHH: B5 VHH with A23E, A40P, Y54G, S63A, L106F, S107P

Positions count from the first letter of the chain named. These are yes or no findings as the source states them, for the method shown. Some entries that bind do so weakly or less than the wild type.

One assay addresses 牛血清白蛋白(BSA) (牛 (bovine)) (UniProt P02769). The assay is described as follows: ELISA, BSA coated, human Fc-fused VHH, HRP anti-human Fc, OD450. A general note: In an ELISA, binding on a coated surface is turned into a signal by an enzyme label.
Turning to B1, the binding result is given as “binds”.

Another assay shares this target. The assay is described as follows: ELISA, 100 ng BSA coated, purified VHH, HRP anti-HA, OD450.
Turning to B2, the binding entry was “binds”.
Same read-out and setting: the entry for B3 is “binds”; for B4 it is “binds”; for B5 it is “binds”.
Regarding B6, the binding result is reported as “binds”.

For the next assay the target is unchanged. The assay is described as follows: ELISA, crude extract on BSA-Biotin captured by neutravidin, anti-HA detection; positive if OD > 5x control.
On to B2, for which the binding result is recorded as “binds”.
Still for that read-out and setting: the same measure for B3: “binds”.
Same read-out and setting: the same measure for B4: “binds”; for B5: “binds”; for B6: “binds”.
